PMC7482812
Results are given in words; binding and its absence hold for the method and conditions named. In cells and extracts the contact can be indirect. Some results given as binding are weak or reduced against the parent protein; the word gives no strength.

Sequences of proteins named here, by UniProt entry; tags and fusion partners are left off. A change or cut given only in a name is not applied to a line headed by its entry.
UniProt P03372: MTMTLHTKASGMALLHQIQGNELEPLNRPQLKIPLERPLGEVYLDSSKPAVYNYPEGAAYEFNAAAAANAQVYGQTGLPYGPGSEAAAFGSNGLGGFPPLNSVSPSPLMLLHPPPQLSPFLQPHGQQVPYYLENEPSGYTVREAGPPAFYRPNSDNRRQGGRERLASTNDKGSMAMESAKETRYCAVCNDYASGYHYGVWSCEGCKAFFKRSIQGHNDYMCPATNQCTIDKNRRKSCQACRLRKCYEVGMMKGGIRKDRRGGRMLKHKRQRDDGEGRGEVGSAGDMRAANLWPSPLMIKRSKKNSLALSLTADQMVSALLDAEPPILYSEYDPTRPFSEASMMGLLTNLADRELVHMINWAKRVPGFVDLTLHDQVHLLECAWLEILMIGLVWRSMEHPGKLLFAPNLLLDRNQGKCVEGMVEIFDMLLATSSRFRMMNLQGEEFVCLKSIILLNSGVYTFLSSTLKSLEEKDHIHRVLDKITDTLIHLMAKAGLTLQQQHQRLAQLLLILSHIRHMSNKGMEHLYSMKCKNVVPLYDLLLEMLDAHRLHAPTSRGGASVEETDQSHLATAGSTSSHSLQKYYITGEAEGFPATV
UniProt P46527: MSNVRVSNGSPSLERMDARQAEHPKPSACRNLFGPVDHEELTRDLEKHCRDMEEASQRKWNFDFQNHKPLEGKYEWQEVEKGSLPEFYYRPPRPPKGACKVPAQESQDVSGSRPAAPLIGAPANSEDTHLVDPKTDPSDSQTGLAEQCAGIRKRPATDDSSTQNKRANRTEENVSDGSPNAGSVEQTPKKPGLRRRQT
UniProt P24385: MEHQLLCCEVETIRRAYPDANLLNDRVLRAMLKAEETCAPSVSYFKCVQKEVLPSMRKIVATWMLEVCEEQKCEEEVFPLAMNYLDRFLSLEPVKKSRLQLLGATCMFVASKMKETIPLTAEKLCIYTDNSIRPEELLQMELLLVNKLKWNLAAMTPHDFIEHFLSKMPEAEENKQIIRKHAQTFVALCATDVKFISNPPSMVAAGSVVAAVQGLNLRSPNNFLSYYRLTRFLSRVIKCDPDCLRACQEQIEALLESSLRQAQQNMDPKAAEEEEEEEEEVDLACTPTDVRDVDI

Assays:
[1] = molecular target: estrogen receptor-α (human (endogenous in T47D)) (UniProt P03372); assay: co-IP; T47D cells (control, miR-575-overexpressing, miR-575/BRCA1-overexpressing, miR-575-depleted); precipitated with anti-ERα antibody or control normal IgG, blotted with anti-cyclin D1, anti-BRCA1 or anti-ERα antibody
[2] = molecular target: cyclin dependent kinase inhibitor 1B (human (endogenous in T47D)) (UniProt P46527); assay: co-IP; cytoplasmic and nuclear fractions of the same T47D cells; precipitated with anti-CDKN1B antibody or control normal IgG, blotted with anti-ERα antibody
[3] = molecular target: cyclin dependent kinase inhibitor 1B (human (endogenous in T47D)) (UniProt P46527); assay: co-IP; hormone-deprived T47D cells transfected with a CDKN1B-expressing plasmid or vector control, with or without 10 nM E2 for 48 h; precipitated with anti-CDKN1B antibody or control normal IgG, blotted with anti-ERα antibody

Row | binding [1] | binding [2] | binding [3] | Substance
1 | binds | – | – | cyclin D1 (from UniProt P24385 1-295)
2 | – | binds | binds | estrogen receptor-α (from UniProt P03372 1-595)
